# At least one structure is not confirmed: it was looked up by name or label, or the drawing left a doubt.
# How the values were obtained:
# Type in all cases: cell-based, human
# EGFR Tyr^992 = assay: EGFR Tyr992 phosphorylation in H508 cells; details: incubation with ACh
# SNU-C4 cells = assay: Cell proliferation, sulforhodamine B (SRB) colorimetric assay, SNU-C4 cells; details: 5 days, 37° C., alone; cells express EGFR but not M3R
# Experimental: (§1) FIG. 1 depicts bile acid-induced colon cancer cell proliferation which requires M3R expression and activation in H508 and SNU-C4 cells. […] Cell proliferation was determined using the sulforhodamine B (SRB) colorimetric assay. Mean±SEM of 3 exp.
# (§2) Cells that are known to express both EGFR and M3R were treated with several M3R antagonists and bile acid conjugates to determine if M3R ligand binding affected EGFR activation. […] Cell proliferation was determined using the sulforhodamine B (SRB) colorimetric assay. […] Mean±SEM of 3 exp.
# H508 cells = assay: Cell proliferation, sulforhodamine B (SRB) colorimetric assay, H508 cells; details: 5 days, 37° C., alone; cells co-express M3R and EGFR
# Experimental: as §1, §2
# MAPK activation was detected with 10 μM and maximal with 300 μM DCT. […] DCT-induced MAPK activation is rapid and reversible. MAPK activation is detected within 1 min, maximal by 10-20 min and returns to basal by 70 min. Collectively these findings emphasize the importance of co-expression of M3R and EGFR for both ACh- and bile acid-induced colon cancer cell proliferation, and define relevant DCT concentrations.
# [1] = test system: SNU-C4 colon cancer cells; assay: p44/42 MAPK phosphorylation in SNU-C4 colon cancer cells; details: no muscarinic receptors
structure (smiles),measurement,setting,value
"CC(=O)OCC[N+](C)(C)C [ACh, acetylcholine]",phosphorylation of EGFR Tyr992,EGFR Tyr^992,robust phosphorylation
same,proliferation of SNU-C4 cells,SNU-C4 cells,do not significantly alter proliferation
same,proliferation of H508 cells,H508 cells,stimulate proliferation
same,p44/42 MAPK phosphorylation,[1],not in SNU-C4 cells
